Consider two molecules from publication PMC8651733.

Experiment [1] concerns the target FABP5, endogenous in mouse macrophages (mouse (endogenous in RAW264.7 and BMDMs)) (UniProt Q05816). The experiment can be described thus: SDS-PAGE under reducing or non-reducing conditions with immunoblot; lysates of cells exposed to H2O2 (indicated concentrations or 200 μM) for 15 min; immunoblot for FABP5.
Experiment [2] shares this target. The experiment can be described thus: immunoprecipitation with anti-GSH antibody, immunoblot for FABP5; cells exposed to H2O2 (200 μM) for 15 min, lysed in NP-40 lysis buffer with 20 mM N-ethylmaleimide; anti-glutathione antibody on Protein G magnetic beads overnight at 4 °C; DTT as negative control.
In experiment [3] the target is 3xFlag-FABP5 (pXJ40-3xFlag-FABP5), wild type (UniProt Q05816). The experiment can be described thus: SDS-PAGE under reducing or non-reducing conditions with immunoblot; lysates of cells exposed to H2O2 (indicated concentrations or 200 μM) for 15 min; immunoblot for FABP5.
For experiment [4] the target is unchanged. The experiment can be described thus: immunoprecipitation with anti-GSH antibody, immunoblot for FABP5; cells exposed to H2O2 (200 μM) for 15 min, lysed in NP-40 lysis buffer with 20 mM N-ethylmaleimide; anti-glutathione antibody on Protein G magnetic beads overnight at 4 °C; DTT as negative control.

No constants are given. Whether binding was seen depends on the method and setting. Some binding calls cover weakened binding; strength is not graded here. For some of these results: Where a sequence is shown, tags or fusion partners need not be part of it.

B1: FABP5, endogenous in mouse macrophages (protein, UniProt Q05816 1-135)
chain: MASLKDLEGKWRLMESHGFEEYMKELGVGLALRKMAAMAKPDCIITCDGNNITVKTESTVKTTVFSCNLGEKFDETTADGRKTETVCTFQDGALVQHQQWDGKESTITRKLKDGKMIVECVMNNATCTRVYEKVQ
As to B1, the binding entry in experiment [1] and in experiment [2] was “binds” in each case.

B2: 3xFlag-FABP5 (pXJ40-3xFlag-FABP5), wild type (protein, UniProt Q05816 1-135)
chain: B1 chain
B2: the binding entry in experiment [3] and in experiment [4] was “binds” throughout.
